Source: patent publication US20180303853A1, “COMPOSITIONS AND METHODS FOR TREATING BACTERIAL INFECTIONS USING CEFTAROLINE” (priority 2017, published 2018)
The name of at least one read-out is uncertain.

Test: Aqueous solubility of ceftaroline fosamil
Conditions: with L-arginine, depending on the molarity of the solution

With CCO/N=C(\C(=O)N[C@@H]1C(=O)N2C(C(=O)[O-])=C(Sc3nc(-c4cc[n+](C)cc4)cs3)CS[C@H]12)c1nsc(NP(=O)(O)O)n1 [Ceftaroline fosamil, (6R,7R)-7-{(2Z)-2-(ethoxyimino)-2-[5-(phosphonoamino)-1,2,4-thiadiazol-3-yl]acetamido}-3-{[4-(1-methylpyridin-1-ium-4-yl)-1,3-thiazol-2-yl]sulfanyl}-8-oxo-5-thia-1-azabicyclo[4.2.0]oct-2-ene-2-carboxylate] the “solubility improved by L-arginine” value was “more than 200 mg per ml”.
